Binding data for one molecule are collected here from publication PMC6904361, “Vitamin D Receptor Inhibits NLRP3 Activation by Impeding Its BRCC3-Mediated Deubiquitination” (Frontiers in Immunology, 2019).

Sequences of proteins named here, by UniProt entry; tags and fusion partners are left off.
UniProt Q96P20: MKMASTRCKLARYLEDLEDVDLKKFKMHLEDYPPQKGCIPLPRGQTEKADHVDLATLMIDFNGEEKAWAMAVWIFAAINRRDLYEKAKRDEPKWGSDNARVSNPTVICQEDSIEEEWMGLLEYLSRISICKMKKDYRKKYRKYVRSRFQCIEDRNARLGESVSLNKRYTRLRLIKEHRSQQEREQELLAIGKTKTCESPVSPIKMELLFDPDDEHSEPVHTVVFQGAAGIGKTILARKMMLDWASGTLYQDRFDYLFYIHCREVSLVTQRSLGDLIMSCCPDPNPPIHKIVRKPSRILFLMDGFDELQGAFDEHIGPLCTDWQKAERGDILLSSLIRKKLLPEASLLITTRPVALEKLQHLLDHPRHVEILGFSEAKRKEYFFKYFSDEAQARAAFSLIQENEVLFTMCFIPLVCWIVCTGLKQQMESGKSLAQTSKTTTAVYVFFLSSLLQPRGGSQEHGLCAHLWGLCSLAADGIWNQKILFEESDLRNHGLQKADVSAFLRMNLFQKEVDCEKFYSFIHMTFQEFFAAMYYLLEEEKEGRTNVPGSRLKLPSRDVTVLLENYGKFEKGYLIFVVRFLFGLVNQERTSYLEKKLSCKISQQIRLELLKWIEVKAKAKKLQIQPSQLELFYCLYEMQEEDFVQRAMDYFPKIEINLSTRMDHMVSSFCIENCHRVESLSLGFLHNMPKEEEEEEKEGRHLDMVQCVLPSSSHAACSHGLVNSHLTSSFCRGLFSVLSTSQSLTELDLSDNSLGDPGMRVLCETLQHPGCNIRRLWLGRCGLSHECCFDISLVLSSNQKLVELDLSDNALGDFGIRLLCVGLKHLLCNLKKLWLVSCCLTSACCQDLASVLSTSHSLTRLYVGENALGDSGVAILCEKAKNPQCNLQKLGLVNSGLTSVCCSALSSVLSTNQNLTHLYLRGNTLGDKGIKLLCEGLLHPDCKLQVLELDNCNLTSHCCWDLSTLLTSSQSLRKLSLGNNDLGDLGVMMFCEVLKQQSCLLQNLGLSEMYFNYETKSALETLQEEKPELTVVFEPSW

The experiment concerns the target Flag-NLRP3 (UniProt Q96P20). Kind of experiment: affinity purification with mass spectrometry; Flag-NLRP3 or empty Flag construct in HEK293T for 24 h; anti-Flag antibody and Protein A/G-Agarose; SDS-PAGE, in-gel trypsin digestion, LC-MS/MS (LTQ Orbitrap Velos).

These are yes or no findings as the source states them, for the method shown. Binding seen in cells or lysates may run through a third protein. These calls come from enrichment with a bait or labelling near it, and not all partners need be listed.

B1: GST-human VDR (natural protein, UniProt P11473 1-427, looked up)
chain: MEAMAASTSLPDPGDFDRNVPRICGVCGDRATGFHFNAMTCEGCKGFFRRSMKRKALFTCPFNGDCRITKDNRRHCQACRLKRCVDIGMMKEFILTDEEVQRKREMILKRKEEEALKDSLRPKLSEEQQRIIAILLDAHHKTYDPTYSDFCQFRPPVRVNDGGGSHPSRPNSRHTPSFSGDSSSSCSDHCITSSDMMDSSSFSNLDLSEEDSDDPSVTLELSQLSMLPHLADLVSYSIQKVIGFAKMIPGFRDLTSEDQIVLLKSSAIEVIMLRSNESFTMDDMSWTCGNQDYKYRVSDVTKAGHSLELIEPLIKFQVGLKKLNLHEEEHVLLMAICIVSPDRPGVQDAALIEAIQDRLSNTLQTYIRCRHPPPGSHLLYAKMIQKLADLRSLNEEHSKQYRCLSFQPECSMKLTPLVLEVFGNEIS
notes: human vitamin D receptor in pGEX-6P1; also called GST-VDR; pGEX6p-1-GST-VDR; source: E. coli BL21(DE3), IPTG-induced; called purified in the legend
With B1, the binding entry is “binds”.
